PMC7862772
These are yes or no findings as the source states them, for the method shown. In cells and extracts the contact can be indirect. These calls come from enrichment with a bait or labelling near it, and not all partners need be listed.

How the values were obtained:
[1] = target: recombinant E. tenella CDPK4, His-tagged (His-rEtCDPK4) (Eimeria tenella); assay: affinity purification with mass spectrometry; His pull-down (Pierce His Protein Interaction Pull-Down Kit): 150 ug His-rEtCDPK4 and 450 ug proteins of sporulated oocysts on the resin overnight, 4°C; Hexa His as negative control; eluate to shotgun mass spectrometry; only the target purified
[2] = target: Eimeria tenella calcium-dependent protein kinase 4 (EtCDPK4), endogenous (Eimeria tenella (endogenous in sporulated oocysts)); assay: affinity purification with mass spectrometry; 50 ug rabbit anti-rEtCDPK4 IgG on A/G resin (Pierce Co-Immunoprecipitation Kit), 50 ug whole proteins of sporulated oocysts (RIPA lysate), 4°C overnight; eluate by SDS-PAGE, silver stain, whole lane to shotgun mass spectrometry; negative control resin / pre-immune rabbit IgG

B1: Eimeria tenella translation initiation factor eIF-5A (EteIF-5A), endogenous (protein, UniProt U6KT65 1-161)
chain: MSDAEEVSFERADAGASLTYPQQAGAIKKNGFCMLKGNPCKVVDYSTSKTGKHGHAKAHIVGLDIFTGKKYEDICPTSHNMEVPNVKRSEFQLIDVSDDGFVSLLLDNGDLKSDLTLPKDSDGNLDEVALQVKSLFQEGKGVLVSVLAACGKEKIVACKEL
- binding [1]: binds
- binding [2]: binds
